For the assay, the target named is PfATM1-CTD (P. falciparum) (UniProt Q8IDH9). Description: pull-down; 6XHis-tagged bait bound to Ni-NTA beads; P. falciparum lysate; western blot of the eluates; only the target purified. A general note: Immunoblotting shows a protein as a band on a membrane.

Protein sequences, listed by entry. Tags and fused reporters are not part of them. Lines headed by an entry give the natural chain unless they say otherwise; changes in a name come on top.
UniProt Q8IDH9: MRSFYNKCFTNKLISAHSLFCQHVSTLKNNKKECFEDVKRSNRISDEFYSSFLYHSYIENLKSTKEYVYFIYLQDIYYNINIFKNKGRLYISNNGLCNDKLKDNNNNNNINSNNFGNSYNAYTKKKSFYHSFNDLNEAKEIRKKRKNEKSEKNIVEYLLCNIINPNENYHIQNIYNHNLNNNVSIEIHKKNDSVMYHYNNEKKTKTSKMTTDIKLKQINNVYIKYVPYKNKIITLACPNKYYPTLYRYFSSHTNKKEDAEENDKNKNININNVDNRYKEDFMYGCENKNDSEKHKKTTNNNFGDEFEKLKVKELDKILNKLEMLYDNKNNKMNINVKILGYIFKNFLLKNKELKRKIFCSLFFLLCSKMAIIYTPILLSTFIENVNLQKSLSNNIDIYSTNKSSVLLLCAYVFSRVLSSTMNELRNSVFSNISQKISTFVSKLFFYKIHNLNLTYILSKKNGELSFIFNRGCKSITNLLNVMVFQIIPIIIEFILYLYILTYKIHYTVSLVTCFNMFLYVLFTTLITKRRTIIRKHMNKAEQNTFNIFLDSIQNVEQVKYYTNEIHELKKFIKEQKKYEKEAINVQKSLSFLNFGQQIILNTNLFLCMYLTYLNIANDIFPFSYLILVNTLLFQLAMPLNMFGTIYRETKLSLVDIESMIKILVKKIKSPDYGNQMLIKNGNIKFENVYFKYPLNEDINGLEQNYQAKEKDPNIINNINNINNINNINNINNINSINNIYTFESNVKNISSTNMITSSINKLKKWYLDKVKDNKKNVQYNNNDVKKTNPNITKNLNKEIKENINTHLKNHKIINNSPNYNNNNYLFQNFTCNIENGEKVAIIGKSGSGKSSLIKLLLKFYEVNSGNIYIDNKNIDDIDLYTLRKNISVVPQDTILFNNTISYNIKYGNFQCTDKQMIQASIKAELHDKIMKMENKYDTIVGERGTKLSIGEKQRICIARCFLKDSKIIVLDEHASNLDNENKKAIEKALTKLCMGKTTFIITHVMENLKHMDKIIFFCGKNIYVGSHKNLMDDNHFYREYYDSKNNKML

Results are given in words; binding and its absence hold for the method and conditions named. In cells and extracts the contact can be indirect. Binding calls can cover weak binding; strength is not graded here.

B1: PfIscA2 (protein, UniProt O97297 1-404)
chain: MFNNFLNMYMCTLAEKLCKFKKNNFNNIHRNNNFYRDNNFYRDNNFYRDNNFYRDNNFYRDNNLYTNNNLYRDNNFYRDNNFYRDNNFYRDNNLYTNNNLYRDNNLYTNNNLYRDNNFYNITLRKFHFIQTISNNNFNFEIIKKYGDVINKIMFIHTQKKNKQERFMFNNKKYIKRKEYILNDLNEFISIIPHPEINNEITNNSNQKKNKDNKQNVLSTNQQIITNYNLNHKENVTSNLNFNNKEEDEKKLDKLLKKRNIKKRDIVTITEEAKEELKKIISINKKENNNNYNNMNTICSDNHNDMNTICNDKNILKLFFITKGCNGLTHSFNFISKKDIHKEDEIIYDDQNNILLVIDKNCILYVINTTLDYYKDDLTEKFIFKNPNITSICPCGTSFHFSKKK
In the case of B1, the binding result is on record as “binds”.

B2: PfIscU (protein, UniProt Q8IKT4 1-162)
chain: MKSKILCNLFKGKSCICLYTNCLNENNVNKCYYNLVRNYSDHVKDHFNKPRNVGSFDKNEKNIGTSIVGKASCGDVIKLQLKIENDVIKDARFMAFGCGSAIASSSYATELIKGKTIDEALKIKNNDIASHLSLPPVKIHCSLLAEDAIKHAIKNYREKVLT
For the molecule B2, the binding result is listed as “binds”.

These data come from PMC11476691, “ATM1, an essential conserved transporter in Apicomplexa, bridges mitochondrial and cytosolic [Fe-S] biogenesis” (PLOS Pathogens, 2024).
